Laboratory results as given in patent US8962670B2, “Anti-cancer agents” (UWM Research Foundation, Inc., priority 2011, dated 2015).
Some of these results come from one statement about several compounds together.

Tested on: 49 mer DNA duplex 292
Type: biochemical

SMILES: CC1(C)OB(c2ccc(C[N+](C)(CCCl)CCCl)cc2)OC1(C)C [Compound 40, N,N-Bis(2-chloroethyl)-N-methyl-N-[4-(4,4,5,5-tetramethyl-1,3,2-dioxaborolan-2-yl)phenyl]methanaminium bromide]
- crosslink formation: 35-45%
